# Values of other authors, collected in US9855245B2, “Methods for improving lipid profiles using atrasentan” (AbbVie Inc., priority 2013, dated 2018).
# At least one compound was matched to its structure with a doubt left.
# System: obese Zucker hypertensive fatty rats (ob-ZSF1)
# Details: ob-ZSF1 model; cited from earlier work
structure (smiles),measurement,value
CCOc1nc2cccc(C(=O)O)c2n1Cc1ccc(-c2ccccc2-c2nnn[nH]2)cc1 [candesartan],mean blood pressure,significant decrease in mean blood pressure
